Source: article PMC9929924, “Phosphorylation of the receptor protein Pex5p modulates import of proteins into peroxisomes” (Biological Chemistry, 2022)
Where a chain is given by its changes, count along the chain named. Names may count otherwise. These are yes or no findings as the source states them, for the method shown. For some of these results: In cells and extracts the contact can be indirect. Some binding calls cover weakened binding; strength is not graded here. Sequences can lack the tags named with a protein. One block for each binder: values may come before it.

Assays:
[1] = biological target: T1, TPA-tagged Pex5p-S507/523A (Pex5p^2A) (S. cerevisiae) (UniProt P35056); experiment: co-IP; TPA-tagged Pex5p variants purified on IgG Sepharose from crude membrane fractions solubilized with 1% digitonin, eluted with TEV protease; immunoblot for Pex5p, Pex14p, Pex17p, Pex13p
T1 sequence: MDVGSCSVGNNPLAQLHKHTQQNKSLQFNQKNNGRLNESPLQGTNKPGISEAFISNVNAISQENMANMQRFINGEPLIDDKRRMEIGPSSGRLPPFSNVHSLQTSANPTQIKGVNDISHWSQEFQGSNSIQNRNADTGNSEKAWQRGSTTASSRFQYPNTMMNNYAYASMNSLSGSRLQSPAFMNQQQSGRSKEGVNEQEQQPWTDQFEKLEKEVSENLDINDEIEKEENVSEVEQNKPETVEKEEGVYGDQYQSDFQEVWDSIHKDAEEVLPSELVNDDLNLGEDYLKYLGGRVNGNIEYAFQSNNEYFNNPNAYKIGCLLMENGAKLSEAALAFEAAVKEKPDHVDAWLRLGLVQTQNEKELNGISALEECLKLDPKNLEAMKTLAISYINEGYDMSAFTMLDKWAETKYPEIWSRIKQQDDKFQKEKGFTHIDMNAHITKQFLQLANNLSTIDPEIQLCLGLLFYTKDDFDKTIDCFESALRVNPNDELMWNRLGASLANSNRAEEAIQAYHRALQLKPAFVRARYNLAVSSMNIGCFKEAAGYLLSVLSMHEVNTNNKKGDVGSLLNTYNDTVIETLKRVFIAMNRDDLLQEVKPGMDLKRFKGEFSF

[2] = biological target: T2, TPA-tagged Pex5p wildtype (Pex5p^TPA) (S. cerevisiae) (UniProt P35056); experiment: as above
T2 sequence: T1 sequence with A507S, A523S

[3] = biological target: T3, TPA-tagged Pex5p-S507/523D (Pex5p^2D) (S. cerevisiae) (UniProt P35056); experiment: as above
T3 sequence: T1 sequence with A507D, A523D

[4] = biological target: T4, TPA-tagged Pex14p (Pex14p^TPA) (S. cerevisiae) (UniProt P53112); experiment: co-IP; reverse purification: TPA-tagged Pex14p as bait on IgG Sepharose from crude membrane fractions solubilized with 1% digitonin, eluted with TEV protease; immunoblot
T4 sequence: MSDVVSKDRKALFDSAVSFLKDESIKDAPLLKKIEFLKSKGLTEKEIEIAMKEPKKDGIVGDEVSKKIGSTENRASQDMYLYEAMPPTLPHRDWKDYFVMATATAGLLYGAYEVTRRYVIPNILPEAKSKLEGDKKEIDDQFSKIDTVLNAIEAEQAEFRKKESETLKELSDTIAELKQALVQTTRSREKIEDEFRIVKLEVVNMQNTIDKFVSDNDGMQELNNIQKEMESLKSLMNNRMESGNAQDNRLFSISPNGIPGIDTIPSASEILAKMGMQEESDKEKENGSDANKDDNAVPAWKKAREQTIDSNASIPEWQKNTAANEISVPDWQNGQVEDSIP

[5] = biological target: T5, Pcs60p nonapeptide, FITC-… (S. cerevisiae); experiment: fluorescence polarisation; fluorescence anisotropy; 10 nM FITC-labelled peptide, serial dilutions of Pex5p variant 1.5 nM to 6.6 µM; 50 mM HEPES pH 7.5, 150 mM NaCl; one-site binding-saturation fit; both purified
T5 sequence (peptide, FITC on the N-terminus): YKSSRNKSKL

B3: Pex5p wildtype, recombinant His6-tagged (HisPex5p) (natural protein, S. cerevisiae, UniProt P35056 1-612, looked up)
chain: T1 sequence with A507S, A523S
notes: Pex5p, PTS1 receptor of Saccharomyces cerevisiae, UniProtKB P35056, full length; No cleavage of the His tag is described; the native MS mass of the monomer is printed as 71.459 kDa; also called Pex5p^WT; source: E. coli BL21 RIL (DE3), purified (Ni-NTA, MonoQ anion exchange, SEC)
binding [4]: binds

B4: Pex5p-S507/523A in cells expressing TPA-tagged Pex14p (protein, UniProt P35056 1-612)
chain: T1 sequence
binding [4]: binds

B5: Pex5p-S507/523D in cells expressing TPA-tagged Pex14p (protein, UniProt P35056 1-612)
chain: T1 sequence with A507D, A523D
binding [4]: binds

B6: Pex5p-S507/523D, recombinant His6-tagged phospho-mimicking mutant (natural protein, S. cerevisiae, UniProt P35056 1-612, looked up)
chain: T1 sequence with A507D, A523D
notes: Pex5p, PTS1 receptor of Saccharomyces cerevisiae, UniProtKB P35056, full length, with S507D and S523D; No cleavage of the His tag is described; the native MS mass of the monomer is printed as 71.515 kDa; also called Pex5p^2D; Pex5p-S507D/523D; source: E. coli BL21 RIL (DE3), purified (Ni-NTA, MonoQ anion exchange, SEC)
binding [5]: binds weakly

The next lines start with the values.

binding [1]: binds
binding [2]: binds
binding [3]: binds
B1: Pex13p (protein, UniProt P80667 1-386)
chain: MSSTAVPRPKPWETSASLEEPQRNAQSLSAMMTSNQQDSRPTEESNNSNSASESAPEVLPRPAALNSSGTYGESNTIPGIYGNSNYGIPYDNNPYSMNSIYGNSIGRYGYGGSYYGNNYGSFYGGGYGAGAGYGMNNGSGLGESTKATFQLIESLIGAVTGFAQMLESTYMATHNSFFTMISVAEQFGNLKEMLGSFFGIFAIMKFLKKILYRATKGRLGIPPKNFAESEGSKNKLIEDFQKFNDSGTINSNEKATRRKISWKPLLFFLMAVFGFPYLLNKFITKLQTSGTIRASQGNGSEPIDPSKLEFARALYDFVPENPEMEVALKKGDLMAILSKKDPLGRDSDWWKVRTKNGNIGYIPYNYIEIIKRRKKIEHVDDETRTH

binding [1]: binds
binding [2]: binds
binding [3]: binds
B2: Pex14p (protein, UniProt P53112 1-341)
chain: T4 sequence

binding [1]: binds
binding [2]: binds
binding [3]: binds
B7: Pex17p (protein, UniProt P40155 1-199)
chain: MTSINSFPRNIDWPSNIGIKKIEGTNPTVNAIKGLLYNGGSIYAFLYFVIAMFVEPTLQKQYQQRNDFSLFVLLRLRRIIAQLQKRLVMTPVSSLGFNEQNNFVERSTQTSDDNIIREDNSHWAEMIYQLQNMKQELQYFNRSSGQPSESIDDFVFQIKMVTDQVELTDRSRAFSNKSRNIIQGIREIKGWFVNGQVPR
